Test results: PubChem BioAssay AID1347426 (Functional Genomics Laboratory (NCATS/FGL), 2020)
Screen size: about 31,000 sequences; about 1,400 (4.5%) were called active.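 The calls were made as follows: active = median seed-adjusted z-score above 1 or below -1; inactive = the rest.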 The list shows a part of the results.

Experiment: Novel Modifiers of Survival Motor Neuron (SMN) Protein: Gene Identification via Genome-wide siRNA Screen;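 also: luminescence tracks full-length SMN protein made from the SMN2 reporter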
Conditions: HEK293T SMN2-luciferase reporter, siRNA knockdown, 72 h; actives lie on both sides
Summary of the method: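 Steps: spot 1 pmol siRNA, add Lipofectamine RNAiMax in serum-free DMEM, seed HEK293T SMN2–luciferase reporter cells; incubate 72 h at 37 °C; add ONE-Glo; normalize luminescence to control siRNA, log10, MAD. Candidates: |MAD| > 1.0.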

Sequence | median seed-adjusted z-score
CCACAAGCGAGAAACUGCATT against SIGLEC8 | inactive: 0.0069
AAACAAGUAUCGUCAGGUATT against SSX5 | inactive: -0.0517
CCUCCUAAUUUUAACGAAUTT against ZIC3 | inactive: -0.183
GCAAUCACCUUACAUCCAATT against LIPE | inactive: -0.276
GAUGUAAACCCUGAACUAATT against CSRP2 | inactive: -0.829
GCACACCACGGAUCUAGAUTT against CKMT1B | inactive: -0.929
CGAAAUCCUGAACACCUCATT against ANXA9 | inactive: 0.055
GGUUUUUGCUCAACGGAUUTT against PCDHGA9 | inactive: -0.125
AGGUGACAGAACUUAUUAATT against GTF2A2 | inactive: 0.0457
GGUUCUUCGAGAAAAUGGATT against KCNIP3 | inactive: 0.283
GCUCGGUGGUUGAUAAUCATT against SLC22A10 | inactive: -0.0897
CGGCUGCUGUGCUAUCAUUTT against SLC6A1 | inactive: -0.122
UGCAGACACUGAGCCCUGATT against DUSP5 | inactive: 0.324
CAUCAUCAUUGCUACUGGATT against TXNRD2 | inactive: 0.459
CGAUAUUGCAUGACAUUGATT against TPTE2 | inactive: -0.0675
CAGUCUCCAUGAUGCAGCATT against SS18L1 | inactive: -0.174
GCAUAGCAUAUAUUAGGCUTT against CAMK2D | inactive: 0.0676
AGCAAAGUGUUCUACCUGATT against YWHAG | active: 1.98
UCCUGUCAUUGCUUACUGATT against C3AR1 | inactive: -0.916
GAAGCUACUUCGUCAAGGATT against PI4K2A | inactive: -0.486
GGCAGCUCAUCUCACGAAATT against ANXA9 | inactive: 0.055
CAUUGCAAGUUGUUCUUGATT against GJA4 | inactive: -0.18

Copied from above (2 entries):
Sequence | median seed-adjusted z-score
CCUCCUAAUUUUAACGAAUTT against ZIC3 | inactive: -0.183
GCAAUCACCUUACAUCCAATT against LIPE | inactive: -0.276

The listing continues:

Sequence | median seed-adjusted z-score
CGACAGAACCCGACUAUGUTT against PAX2 | inactive: 0.341
GUGACACUGAGGACGCUGATT against SLC16A8 | inactive: 0.192
GCAGGGCGGUAUUGCUGUATT against LILRA3 | inactive: -0.548
UCGAGCAACUUAUUCCAUATT against MED30 | active: -2.06
GGAGCCUUGUUGAUCCUUATT against FRAP1 | active: -1.02
GGAUAUUGAUUUUCGGUAUTT against ZCCHC4 | inactive: -0.0614
CGAUAUUACCAAAUCGGUATT against LY75 | inactive: -0.0919
GACAUAUCGCUGUUGUUUUTT against BIRC8 | inactive: 0.0184
ACAUCGAGUCAGAUCUUCATT against SLC11A1 | inactive: -0.516
UGAAAGUCUUUGACCAGGATT against LOC100137047-PLA2G4B | inactive: -0.022
CGGUGAAGGUGCUAAAGGATT against RAD23A | active: -1.13
GCAGAAUACCCUAUAGUUATT against PDC | inactive: -0.541
GGAUUUCUCAUGGAAGUUUTT against CUTC | inactive: -0.377
CGAUAAUCUGGGCUACAGATT against ADD1 | inactive: -0.0129
GCACUUACGAUGACCGGCATT against TNFAIP1 | inactive: 0.0766
CCAUUACGCUGCGGAAUCUTT against TREM2 | inactive: 0.057
UGCUUAUUGUGAAAAUCCATT against RAB27B | inactive: 0
GGAAAUCAUAUGUUCGAAATT against CAPS2 | inactive: 0.135
GGAACAGUACAGAGUUGUATT against ERC1 | inactive: 0.415
AGCCUACACUCCAUAUUCATT against ZNF586 | inactive: -0.973
GAUGAUCGCUUCAACCUGATT against DDX6 | active: 1.12
CUAUUGUUGUUCGCAAUAATT against TTN | inactive: 0.872

Sequence | median seed-adjusted z-score
CAGGUGCUUCGUUUCCUGATT against ARHGAP1 | active: -1.14
CGGAGUCUGCGCUUCGUUATT against ACP2 | inactive: -0.00569
GGUUGGAUGCUAUAUACCATT against ROS1 | inactive: -0.0561
ACAAGUUCGUGGACGAAGATT against ARPC5 | inactive: -0.479
UGAACGUGCUUCUUUGUAATT against HOXB8 | inactive: 0.133
GAUGGUAUUUGUUCAAUGATT against ZNF460 | inactive: -0.302
GGAUGUUCAGCGGUACCUATT against DNAH7 | inactive: 0.287
CAGACUUUGUGCCUCGUUATT against CUL9 | inactive: 0.399
CCAACGUAGUGACCUAUUATT against STK39 | inactive: 0.232
CGAUUCGCAUUAGUGCACATT against MYO5C | inactive: 0
CCGUCAAAAUCAUCGAGAATT against MKNK1 | inactive: 0.221
GAAUAUUCUUGCAGAGUUUTT against WFDC5 | inactive: 0
GGAUCAGGUGCACAUCAUATT against KCNK1 | inactive: 0.124
AAAUAAACCGUGUAUUUAUTT against ING1 | inactive: 0.121
GCUCAGCCCUUACGAAACATT against ZNF606 | inactive: 0.118
CUGCUUCGGGUGAACCAUATT against DHRS13 | inactive: 0.192
AGUGGAAGCUCAGCACAUATT against PYCRL | inactive: 0.498
UGAAGAUCCCGGACUCAUATT against PHF15 | inactive: 0
GCAAGGACCGGAACGAGAATT against RXRA | inactive: 0.304
ACAAGAUGACCAACACUAATT against ARHGAP1 | active: -1.14
GGAAGUAGGAAGCAUCAUUTT against PCBP1 | inactive: 0.124
GCACUAGACUAAAGGAGGATT against TTC1 | inactive: 0.3

Sequence | median seed-adjusted z-score
GGGAUCCUAUUGGAAGAUATT against ACBD5 | inactive: -0.118
CCAAUCCAGCAGAUUCAAATT against NME2 | inactive: -0.0728
CCAUUGAUCUGACCCUGCATT against MAPK7 | inactive: -0.0118
AGUCCAUCCUUAAGACUCATT against ZNF317 | inactive: 0.087
AUAACGAUCUUCAACAAGATT against CYP4F12 | inactive: -0.564
GUAUACACCUUAAAUGAUATT against HPR | inactive: 0.237
CGUCGUACGUGCUCAAGAATT against USP20 | inactive: -0.369
CGCACAUCAUGGACCAGUATT against MAN2B2 | inactive: 0.0555
ACUCCUACAUGACCCUGAATT against FOXA3 | inactive: 0.128
CCACUACGAGAGUCGAAAATT against ZMAT4 | inactive: -0.0468
GCACUGCGAGAUGAAGUAATT against KLHL10 | inactive: 0.0708
GGACCGUGUUCAACUCAGATT against TOM1 | inactive: 0.774
GUAUGUUCCACAUAAUGAATT against CYP19A1 | inactive: -0.321
GAAUUAAGAUGGGAAGAUATT against FOXD4L4 | inactive: -0.0372
GCUGCUAAACAAAUCAAUATT against RGS1 | inactive: 0.329
GAAUAUCGGCAGAGAGAUATT against RNF12 | inactive: 0.29
CACAGUCGCUGGUCCUUAUTT against MSH5 | inactive: -0.444
GAGAUUUCUUUAGACAAAATT against DRD5 | inactive: -0.18
AUGUCUUACCUAAAGAACUTT against AMY2B | inactive: -0.564
GGAGCACUGUAUUACAACATT against TMTC1 | inactive: -0.147
CCCAAAAUCAUAAAGCGAATT against ZNF343 | inactive: 0.0696
CGUAAGAGCUUACAACACUTT against CNTN6 | inactive: 0

Shown as comma-separated lines: entries from further up.
Sequence,median seed-adjusted z-score
CCAAUCCAGCAGAUUCAAATT against NME2,inactive: -0.0728
CCAUUGAUCUGACCCUGCATT against MAPK7,inactive: -0.0118

Following part:

Sequence | median seed-adjusted z-score
GGUGCUUUAUCACGAGUAUTT against SLC20A2 | inactive: -0.0546
GCACUUGUCAGACACCACUTT against BRSK2 | inactive: -0.12
GUAACAUGCCUGAUGGUUUTT against NOTCH2 | inactive: 0.000598
CCUUUAAGGUAGAGGAAGATT against NPM3 | inactive: 0.0417
GCACCGAACCCGUCUAUCATT against POU3F4 | inactive: -0.314
GGAUCAUUCUCAACGGGAUTT against KCNV2 | active: -1.13
GCUUAACUCCAACACGCAATT against PLAU | inactive: 0.0765
CAAUGAAAAUGCGAUACGATT against CSF2RB | inactive: -0.454
GCGGGUUCUUUGACGACAATT against SLC26A4 | inactive: 0.274
GGUCCUUCCUAUAUAGUAUTT against GPR155 | inactive: 0.0681
CAACGAGUAUAAGACAGAATT against PITPNM2 | inactive: 0.275
GAAAUUGGAUUCUAAAGCATT against SYCP1 | inactive: -0.0197
GACCGAAGAUUGCCGUUUATT against ZNF295 | inactive: 0.371
GGAUGUCGGCAACACGGAATT against MYBPC3 | inactive: 0.304
GUGUUGAACCGGUCAGGGATT against VAT1 | inactive: -0.744
GAUGCAUGUUUGUAAAAAUTT against KCNJ6 | active: -1.6
GGAGUUAGCACUAACAUAATT against NUP98 | inactive: 0.168
GAGUGGACAUUGUCAUGGATT against VAT1 | inactive: -0.744
GGACAUUGCCUAUACCUAUTT against NAALADL1 | inactive: -0.0444

A few values from the entries so far.
GACCGAAGAUUGCCGUUUATT against ZNF295 | median seed-adjusted z-score: inactive: 0.371
GCACUUGUCAGACACCACUTT against BRSK2 | median seed-adjusted z-score: inactive: -0.12
